Patent US20030206886A1 (UNIVERSITY OF MEDICINE AND DENTISTRY OF NEW JERSEY, published 2003)
Results are given in words; binding and its absence hold for the method and conditions named. Some binding calls cover weakened binding; strength is not graded here. For some assays here: Sequences can lack the tags named with a protein.

By UniProt entry, the sequences of proteins in these tests, tags left out. Residues count along the entry.
UniProt P22301, residues 19-178: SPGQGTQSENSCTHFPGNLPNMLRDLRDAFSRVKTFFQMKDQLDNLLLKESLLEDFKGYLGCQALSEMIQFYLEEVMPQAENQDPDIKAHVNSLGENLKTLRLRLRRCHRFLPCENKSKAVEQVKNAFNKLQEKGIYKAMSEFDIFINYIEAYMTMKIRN

Legend:
human IL-10 (human) [1] = molecular target: human IL-10 (human) (UniProt P22301); experiment: ELISA inhibition with concentrated supernatant, FIG. 7
human IL-10 (human) [2] = molecular target: human IL-10 (human) (UniProt P22301); experiment: Ba8.1 proliferation assay FIG. 6; ELISA inhibition FIG. 7 ('specifically interferes with IL-10 activity in ELISA')
human IL-10 (human) [3] = molecular target: human IL-10 (human) (UniProt P22301); experiment: pre-incubation with hIL-10 before Ba8.1 proliferation assay, FIG. 6
human IL-10 (human) [4] = molecular target: human IL-10 (human) (UniProt P22301); experiment: ELISA inhibition, supernatant pre-incubated with 250 pg cytokine, FIG. 7
human IL-10 (human) [5] = molecular target: human IL-10 (human) (UniProt P22301); experiment: Ba8.1 proliferation assay after pre-incubation, FIG. 1 bottom
human IL-10 (human) [6] = molecular target: human IL-10 (human) (UniProt P22301); experiment: bead depletion assay (Ni-NTA agarose), unbound hIL-10 by ELISA, FIG. 2
human IL-10 (human) [7] = molecular target: human IL-10 (human) (UniProt P22301); experiment: bead depletion assay, FIG. 2 (also FIG. 1 bottom: 'bind human IL-10')
human IL-10 (human) [8] = molecular target: human IL-10 (human) (UniProt P22301); experiment: bead depletion assay (Ni-NTA-Agarose), filtrate assayed by ELISA

Measured: binding

human IL-10 receptor IgA immunoadhesin (from UniProt Q13651 22-235; P01876 103-353) (Fc fusion)
binds: human IL-10 (human) [1] | human IL-10 (human) [2] | human IL-10 (human) [3] | human IL-10 (human) [4]

B1: human IL-10 receptor extracellular domain (human IL-10R-6xHis) (receptor)
chain: HGTELPSPPSVWFEAEFFHHILHWTPIPNQSESTCYEVALLRYGIESWNSISNCSQTLSYDLTAVTLDLYHSNGYRARVRAVDGSRHSNWTVTNTRFSVDEVTLTVGSVNLEIHNGFILGKIQLPRPKMAPANDTYESIFSHFREYEIAIRKVPGNFTFTHKKVKHENFSLLTSGEVGEFCVQVKPSVASRSNKGMWSKEECISLTRQYFTVTNHHHHHH
binds: human IL-10 (human) [5] | human IL-10 (human) [6] | human IL-10 (human) [7] | human IL-10 (human) [8]
